Percent effect of library compounds

From ChEMBL document CHEMBL3988442, “University of Dundee, Small-Polar-MMV Screening Library” (2021).

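Assay of Toxoplasma gondii numbers, read through their beta-galactosidase reporter with a colour substrate. Tested at 10 µM. The record gives no direction; the compounds picked for IC50 retests had high values, so higher reads as fewer parasites. Of about 67,000 compounds tested this way, about 260 (0.38%) reached 50% or more in at least one test.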

Values are the deposited “Percent Effect”, in %.
The controls that fix the scale are not given in the record; negative values are as filed.
Compounds were drawn at random from those tested, without regard to their results.

| Compound | percent effect |
|---|---|
| `Cn1nc(CNC(=O)C2CCCCC2)cc1C1CC1` | 7.186 |
| `Cc1cccc(CNC(=O)CC2CCN(S(C)(=O)=O)CC2)n1` | -2.133 |
| `CCCOc1ccc(NC(=O)NCCC(=O)N(C)C)cc1Cl` | -2.189 |
| `c1cnnc(N2CCCC2CNc2ncnc3sccc23)c1` (stereo unspecified) | -1.28 |
| `O=C(Cn1ccc2sccc2c1=O)NCc1ccc2c(c1)OCO2` | -2.661 |
| `CCCS(=O)(=O)N1CCC(NCc2c(C)nn(C)c2OC)CC1` | -8.771 |
| `CC1CCCN(C(=O)c2cc(-c3ccco3)cs2)C1` (stereo unspecified) | -6.554 |
| `CCCc1cc(C(=O)N(Cc2cccnc2)C2CCCCC2)[nH]n1` | 1.095 |
| `Cc1nnc(CN2CCCC2c2cccc(Br)c2)o1` (stereo unspecified) | 12.66 |
| `O=C1OC2(CCN(C(=O)C3NCCc4[nH]cnc43)CC2)c2ccccc21` (stereo unspecified) | -9.836 |
| `CCOCCN1CCN(CC(O)c2ccc(OC)cc2)CC1` (stereo unspecified) | 15.53 |
| `Cc1nnc(N2CC[C@H](OCC3CC3)[C@@H](Cc3ccccc3)C2)s1.O=C(O)C(F)(F)F` | 6.303 |
| `Cc1nc2c(C)cccc2cc1C(=O)N1CCC2(CCN(C)CC2)C1` | -3.857 |
| `Cc1ccc(CNCc2c[nH]nc2C(C)(C)C)c(OC2CCOC2)c1` (stereo unspecified) | 7.179 |
| `O=C(O)C(F)(F)F.[H][C@@]12CCN(Cc3ccccc3OC)C[C@]1([H])O[C@@H](C(=O)N1CCCC1)C2` | -2.596 |
| `O=S1(=O)c2cnccc2OC(COc2ccccc2)CN1CC1CC1` (stereo unspecified) | 17.54 |
| `[H][C@]12CC[C@]([H])(CN(C3Cc4ccccc4C3)C1)N(Cc1nc(C)no1)C2` | 2.703 |
| `NC(=O)C1CCN(C(=O)NCCOc2ccc3c(c2)OCO3)C1` (stereo unspecified) | 2.339 |
| `O=C1CCC(=O)N1c1nn(Cc2c(F)cccc2Cl)cc1Cl` | -0.6104 |
| `COc1ccc2nnc(CCC(=O)Nc3nc(C)c(C)s3)n2n1` | -32.84 |
| `Cc1nc(CNC(=O)c2cc(COc3ccccc3F)[nH]n2)n[nH]1` | 23.5 |
| `Cc1cc(O)n(-c2ccc3nnc(C)n3n2)n1` | -12.02 |
| `Fc1cccc2ncnc(NCC3(N4CCOCC4)CCSC3)c12` (stereo unspecified) | -1.063 |
| `Nc1nc2c(c(NC3CCCC3)n1)CCN(C(=O)C1CCOC1)CC2` (stereo unspecified) | 14.54 |
| `[H][C@@]12C[C@@H](O)CN1C[C@@H](Cc1ccccc1)N(Cc1ccccc1)C2` | -44.07 |
| `[H][C@@]12CN(C(C)C)C[C@]1([H])OCC(=O)N2Cc1ccccc1` | 9.742 |
| `O=C1C(NCc2cccc(O)c2)CCN1Cc1ccccc1` (stereo unspecified) | -6.287 |
| `CC(C)CCC(C)NC(=O)c1ccc(OCC(N)=O)cc1` (stereo unspecified) | -6.694 |
| `CCc1nc(CC(=O)N2CCC(C(=O)N(CC)CC)CC2)cs1` | -6.283 |
| `COc1ccc(CCN)cc1-c1ccc(S(C)(=O)=O)cc1` | 2.883 |
| `Cc1ccsc1-c1nc(CN(C)Cc2noc(C(C)C)n2)c(C)o1` | 10.76 |
| `O=C(CC1CCCC1)NCCn1ccc(-c2ccccn2)n1` | -2.55 |
| `CCOC1CCCN(C(=O)c2[nH]nc(C)c2Br)C1` (stereo unspecified) | 5.967 |
| `CCc1c(O)nc(SCC(=O)c2ccccc2)n(-c2ccccc2)c1=O` | -5.631 |
| `Cc1nc(C)n(CC2CCCN2Cc2ccc(F)cc2C#N)n1` (stereo unspecified) | 5.125 |
| `CCN1C(=O)C2(CCCCC2)NC1c1cc(C#N)n(C)c1C` (stereo unspecified) | 0.4802 |
| `COc1ccc(CNC(=O)N2CCCN(CC3CCCCC3)CC2)cn1` | 10.9 |
| `Cc1cc(C)n(CCNCc2cc(-c3ccc(F)cc3)c[nH]c2=O)n1` | -9.763 |
| `CCc1ccccc1NC(=O)NCc1nnc(SC)n1C` | -11.07 |
| `Cc1nnc(NC(=O)C2CSCN2C(=O)C2CCCC2)s1` (stereo unspecified) | -6.991 |
| `O=C(O)C(F)(F)F.[H][C@@]12CCN(c3nncs3)C[C@@]1([H])O[C@@H](C(=O)NCc1ccco1)C2` | -2.971 |
| `Cc1nc(NCCO)cc(C(C)Cn2nc(C)c(C)c2C)n1` (stereo unspecified) | -13.06 |
| `O=C(c1ccc2c(c1)OCO2)N1CCN(c2cnccn2)CC1` | -5.789 |
| `CS(=O)(=O)c1cccc(OCC(=O)N2CCCC2c2ccc[nH]2)c1` (stereo unspecified) | 6.979 |
| `CCN(CC)C(=O)[C@@H]1C[C@H](N)CN1c1nnc(-c2ccccc2)s1` | -7.191 |
| `O=C(NCCc1ccn(-c2ccccc2)n1)N1CCSCC1` | -12.85 |
| `CCCC1c2ccccc2CCN1CCS(C)(=O)=O` (stereo unspecified) | 3.328 |
| `Cc1cccc(CNC(=O)CCc2c(C)nc3cc(O)nn3c2C)n1` | 5.428 |
| `COc1ccc(C(C#N)NC(=O)Cc2ccc(F)c(F)c2)c(OC)c1` (stereo unspecified) | -4.055 |
| `CN(Cc1ccc2c(c1)OCCO2)C(=O)Cn1cccnc1=O` | 12.39 |
| `CN1C(=O)CC(c2cnn(C)c2)C12CCN(C(=O)c1cscn1)CC2` (stereo unspecified) | -6.529 |
| `CCc1nc(C2CCCN2C(=O)C2=COCC2)no1` (stereo unspecified) | 3.431 |
| `CN(c1ccncn1)C1CC2(CCN(C(=O)c3cncs3)C2)C1` (stereo unspecified) | 9.451 |
| `Cc1nc(C)c(C)c(N(C)CCCc2nccn2C)n1` | 3.127 |
| `NC(=O)C1CCN(C(=O)c2cc(Br)ccc2-n2cnnn2)CC1` | 6.377 |
| `CC(=O)c1ccc(N2CCN(C(=O)c3cnn4c3OCCC4)CC2)cc1` | -47.37 |
| `Cc1cc(C[C@@H]2COC[C@H]2NCc2ccc(C(F)(F)F)cc2)on1.O=C(O)CC(O)(CC(=O)O)C(=O)O` | -3.036 |
| `O=C1CC(Nc2ccc3nccnc3n2)CN1c1ccccc1` (stereo unspecified) | 9.244 |
| `CC(C)Oc1ncccc1CNC(=O)N1CCCC1c1ccsc1` (stereo unspecified) | -17.83 |
| `O=C(NCC1(O)CCOC1)NCC1(c2ccccc2Cl)CC1` (stereo unspecified) | -8.789 |
| `CSCc1ccc(N2CCC(C(O)Cc3ccccc3)CC2)nc1` (stereo unspecified) | 2.53 |
| `CCOCCCNC(=O)Nc1ccc(F)c(C(N)=O)c1` | 3.973 |
| `CCNc1cc2c(nn1)CCN(C(=O)CC1CCCC1)C2` | -1.477 |
| `COc1cc(CN(C)C(=O)NCCC2CCCO2)ccc1SC` (stereo unspecified) | 6.101 |
| `CC(=O)N[C@@H]1CN(C(=O)c2cccc(C(F)(F)F)c2)C[C@H]1O` | 15.97 |
| `COc1ccc(F)cc1CN1CCCC(c2cc(C(N)=O)[nH]n2)C1` (stereo unspecified) | 2.031 |
| `C=Cc1cccc(CN(Cc2cnn(C)c2)C2CC2)c1` | -8.854 |
| `COc1cc(CN(C)C(=O)NCCNC(=O)C2CC2)ccc1SC` | 0.05774 |
| `Cc1cc(=O)n2ncnc2n1CC(O)c1cc(F)ccc1F` (stereo unspecified) | 3.771 |
| `Cc1nnc(CN2CCN(C(C)c3nc(C4CC4)no3)CC2)o1` (stereo unspecified) | 7.579 |
| `CCC1CCCN(Cc2nc3ccccc3c(=O)[nH]2)C1` (stereo unspecified) | 0.6215 |
| `O=C(O)C(F)(F)F.[H][C@]12CCC[C@@]1(COc1ccccn1)CN(C(=O)N(C)C)C2` | -11.52 |
| `COC(=O)[C@H](CCSC)NC(=O)Cn1ccc2c(Cl)cccc21` | -6.709 |
| `CN(CCNC(=O)NCc1ccsc1)C1CCCC1` | 1.224 |
| `CC(C)c1ncc2c(n1)CN(Cc1ccc(C(N)=O)cc1)CC2` | -10.87 |
| `Cc1nn(C)c(C)c1NC(=O)c1cccc(CN2CCS(=O)(=O)CC2)c1` | -0.2695 |
| `CN1CC2(CCN(CC3CC3)CC2)COc2ccccc2S1(=O)=O.O=C(O)C(F)(F)F` | 21.02 |
| `COc1ccc(NC(=O)Cn2cc(-c3ccccc3)ncc2=O)cn1` | -3.073 |
| `Cc1csc(N2CCCN(C(=O)C(C(C)C)n3cncn3)CC2)n1` (stereo unspecified) | 7.216 |
| `COCc1nc2cc(NCc3ccc(C)o3)ccc2o1` | 3.453 |
| `CN(Cc1cccs1)C(=O)CN(C)C1CCc2ccccc21` (stereo unspecified) | 0.2401 |
| `Cc1ccc(OCC(=O)NCc2ccco2)nc1` | 5.987 |
| `CSCC(CCO)NC(=O)Nc1cc(Br)ccc1C` (stereo unspecified) | -3.175 |